From patent US11266710B2, “Angio-3 for treatment of retinal angiogenic diseases” (SINGAPORE HEALTH SERVICES PTE LTD, priority 2017, dated 2022)
“Also recorded” adds a separate entry of the source. Part of at least one peptide drawing is inferred or uncertain, most often the ends. Where no end group is shown, it is not given here.

What was measured:
[1] = tested on: KIMBA mice (KIMBA-hVEGF Transgenic); test: Retinal angiogenesis (FFA leakage) in KIMBA mice; type: in vivo, mouse; details: for duration of effect in attenuating retinal angiogenesis post treatment: Kimba mice, single IVT injection 1 μg in 1 μL
Excerpt: FIGS. 1A, 1B, 1C and 1D show the efficacy of a single IV dose of angio-3 in attenuating the retinal angiogenesis in KIMBA mice, which have over expression of human VEGF (KIMBA-hVEGF Transgenic). FIG. 1A is a schematic of the experimental design. FIG. 1B are images showing Fundus Fluorescein Angiography (FFA) images of baseline and weekly after post treatment. Digital color fundus photographs were taken using a MICRON IV comprehensive system for rodent retinal imaging (Phoenix Research Labs, Pleasanton, Calif.) after pupil dilatation with topical administration of 1% tropicamide (Alcon Laboratories, Inc., Fort Worth, Tex.) and 2.5% phenylephrine (Bausch and Lomb Pharmaceuticals, Inc., Tampa, Fla.) ophthalmic solutions. For FFA, mice were injected intraperitoneally with 10% sodium fluorescein dye at a dose of 0.01 mL/5-6 g BWt and fundus images were obtained using MICRON IV. FIG. 1C is a graph showing regression of leakage in Kimba mice by each eye and by batch. IV single injection of 100 μL of Angio-3 was given at week 4 and followed for further 4 weeks. (25 mg/Kg Bwt). Readout is the leakage of retinal vascularization post-administration of the drug. n=6 eyes per batch; n=3 batches; Values are expressed as means±s.e.m., **P<0.01, *P<0.05, student's t-test. FIG. 1D are images showing Isolectin Retinal staining. Control and Angio-3 treated eyes were enucleated and fixed in 4% paraformaldehyde (PFA) in PBS for 15 minutes at room temperature. The eyes were then transferred to cold 1×PBS on ice for 5-10 minutes. The neural retina and choroid/RPE were dissected separately and placed in cold (−70° C.) ethanol. […] All imaging was performed with a laser-scanning confocal fluorescence microscope.
FIGS. 2A, 2B, 2C and 2D show the efficacy of a single IVT dose of angio-3 and Eylea (anti-VEGF), positive control in attenuating the retinal angiogenesis in KIMBA mice. […] Readout is the leakage of retinal vascularization post-administration of the drug. n=10 eyes per batch; n=2 batches; Values are expressed as means±s.e.m., **P<0.01, *P<0.05, student's t-test. […]

[2] = tested on: laser-induced CNV in C57/BL6J (B6J) wild type mice; test: Laser-induced choroidal neovascularization (CNV) model in mice, area of leakage by FFA; type: in vivo; details: for Area of Leakage (mean) Week 1 / Area of Leakage (mean) Week 4: laser-induced CNV mice; for % Reduction (area of leakage): vehicle control = 0%
Description: FIG. 3A is a schematic of the experimental design on the efficacy of Angio-3 in a laser-induced choroidal neovascularization (CNV) model in mice (B6J WT mice). FIG. 3B are FFA images of baseline and at different time points post treatment. IV single injection of 100 μL of Angio-3 (25 mg/Kg Bwt) was given at Day 0 (prevention mode) and 4 days after laser (regression mode) and followed for 10 weeks. FIG. 3C is a graph showing the area of leakage by each eye for various groups. FIG. 3D are graphs of the mean area of leakage of all batches for each group. […] The attenuation retinal vascularization was better than scrambled peptide. n=6 eyes per batch; n=3 batches. Values are expressed as means±s.e.m., **P<0.01, *P<0.05, student's t-test. FIG. 3E is a graph of the result of the Retinal Function Test that measures ERG changes in Angio-3 treated and control.
FIG. 4A is a schematic of the experimental design on the efficacy of Angio-3 by IVT administration. […]
FIG. 11 A are FFA images of baseline and at different time points post treatment. Mice received single IVT injection of Angio-3 (at a dose of 1 μg in 1 μl or 100 ng in 1 μl), and chemically modified Angio-3 peptides Pep-N (at doses of 5 μg in μl; 1 μg in μl; and 100 ng in 1 μl, respectively) and Pep-Q peptides (at doses of 5 μg in μl; 1 μg in μl; and 100 ng in 1 μl, respectively). FIG. 11 B is a graph of the area of leakage by each eye. Single dose attenuates retinal angiogenesis in laser-induced mice CNV model via IVT route till 4 weeks. […] Eylea is the positive control. n=18 eyes per group; Values are expressed as means±s.e.m. n=3 independent experiment, **P<0.01, *P<0.05, student's t-test.
Laser induced choridal neo-vascularization (CNV) in C57/BL6J (B6J) wild type mice (n=90).
In B6J mice, single injection of 100 μl volume at 25 mg/kg Bwt concentration Angio-3 was injected via intravenous (i/v) route and this was tested in both Preventive mode (before laser) and Regression mode (4 days after laser). […]
Angio-3 was also injected via intravitreal (IVT) route, single injection of 1 μl volume at 2 different doses; 1 μg (High dose) and 100 ng (Low dose).
4 laser photocoagulation sites were placed concentrically around the optic disc of both eyes to induce CNVs. A diode laser (810 nm) was used with a relative potency scale of 120 mW for mice and 250 mW for rats, an exposure time of 0.05 s, and a spot size of […]. Laser spots were focused with crystal covers to avoid laser beam dispersion. Bubble formation was confirmed the rupture of Bruch's membrane.
Fundus photography and fundus fluorescein angiography (FFA) was imaged using a MICRON IV fundus camera (Phoenix Laboratories USA). For FFA, animals were intraperitoneally injected with 10% sodium fluorescein at a dose of 0.01 ml per 5-6 gm body weight.
In B6J mice, single intravitreous (IVT) injection of 100 ng, 1 μg, 5 μg PEP-Q, PEP-N (modified Angio-3), Angio-3 and Eylea were executed and this was tested in Prevention mode (before laser) Method of Llser induced CNV model and injection was described as above.

[3] = tested on: laser-induced CNV in Brown-Norway rats; test: Laser-induced CNV model in rats, IVT route; type: in vivo; details: rat CNV model; single IVT dose, 5 μg; prevention mode
HRMEC cells [4] = test: VEGF induced proliferation of HRMEC cells (Alamar-Blue); type: cell-based; details: all three concentrations tested; 10 ng/ml or 50 ng/ml VEGF165; 3 days
Description: 2000 HRMEC cells were seeded in 96-well plates in 100 μl of media and placed in a CO2 incubator at 37° C. To evaluate the effect the compounds have on VEGF-induced HRMEC proliferation, cells were treated with 10 ng/ml VEGF165 or 50 ng/ml VEGF165 in the presence of different concentrations of Angio-3 after serum starved in EBM-2 supplemented with 0.5% FBS overnight. 300 μg/ml Avastin was used as a positive control. Alamar-Blue assay was performed after 3 days of treatment.

HRMEC cells [5] = test: HRMEC transwell migration assay; type: cell-based; details: 50 ng/ml VEGF165, overnight
Description: Transwell migration assays were performed in a 24-well cells culture plate containing 8.0 μm pore size inserts. HRMEC cells were serum starved overnight prior of assay. The lower chamber were filled with EBM-2, EBM-2 supplemented with 50 ng/ml VEGF165 plus different concentrations of inhibitors. 1×10^5 Cells in EBM-2 were seeded in the upper chamber. Cells were allowed to migrate to the other side of membrane for overnight at 37° C. Cells on top of the membrane were wiped off and cells migrated to the other side were fixed and stained with 0.4% crystal violet. Cell numbers were counted under a 10× objective for 5 randomly selected fields.

[6] = tested on: human umbilical vein endothelial cells (HUVECs); test: HUVEC apoptosis in the presence of VEGF or bFGF; type: cell-based
HUVEC [7] = test: HUVEC proliferation stimulated by VEGF and bFGF; type: cell-based, human
HUVEC [8] = test: HUVEC chemotactic migration induced by VEGF or bFGF; type: cell-based, human
HUVEC [9] = test: HUVEC capillary network formation on Matrigel; type: cell-based, human; details: pre-incubated 30 min with increasing doses; imaged after 6 h
[10] = tested on: VE-cadherin at Adherens junctions (AJs) on HUVECs; test: VE-cadherin dissociation from adherens junctions in HUVECs; type: cell-based, human; details: 100 μM pre-treatment 30 min; 100 ng/ml VEGF 20 min
[11] = tested on: tight junction (TJ) proteins ZO-1 and ZO-2 in HUVECs; test: ZO-1 and ZO-2 dissociation from tight junctions in HUVECs; type: cell-based, human; details: 100 μM pre-treatment; 100 ng/ml VEGF
[12] = tested on: actin stress fiber formation in HUVECs; test: Actin fiber formation in HUVECs; type: cell-based, human
[13] = 100 ng single IVT, prevention mode
[14] = 1 μg single IVT, prevention mode

TPHTHNRTPE [Angio-3, Thr Pro His Thr His Asn Arg Thr Pro Glu]
retinal angiogenesis (leakage of retinal vascularization, FFA) ([1]; KIMBA mice, single IV injection 25 mg/kg Bwt, 100 μl, followed 4 weeks): significantly attenuates the retinal angiogenesis | duration of effect in attenuating retinal angiogenesis post treatment [1]: up to 16 weeks | duration of effect in attenuating retinal angiogenesis post treatment ([1]; listed as angio-3): 16 weeks | Area of Leakage (mean) Week 1 [2, 13]: 7404.61 | Area of Leakage (mean) Week 4 [2, 13]: 3334.89 | % Reduction (area of leakage) ([2]; 100 ng single IVT): 50.03% | Area of Leakage (mean) Week 1 [2, 14]: 6214.08 | Area of Leakage (mean) Week 4 [2, 14]: 2867.88 | % Reduction (area of leakage) ([2]; 1 μg single IVT): 48.92% | retinal and choroidal angiogenesis / lesions (area of leakage) ([2]; B6J mice, single IV dose 25 mg/Kg Bwt, prevention and regression mode, till week 10, 25 mg/kg): significantly attenuates the retinal and choroidal angiogenesis; also recorded: decreased the lesions | retinal and choroidal angiogenesis compared with anti-VEGF (Eylea) and scrambled peptide ([2]; B6J mice, single dose via IVT route): significantly attenuates the retinal and choroidal angiogenesis than anti-VEGF; also recorded: significantly reduced angiogenesis as compared to Eylea (anti-VEGF) and scrambled peptide | choroidal angiogenesis ([2]; B6J mice, single intravitreal injection at dose 100 ng, 1 g, and 5 μg, prevention mode): superior efficacy that is similar to PEP-Q and PEP-N | retinal and choroidal angiogenesis compared with murine anti-VEGF or scrambled peptide ([2]; B6J mice, sub-lingual route 3 mg/kg Bwt, regression mode, single dose per day for 5 days): significantly attenuates the retinal and choroidal angiog than anti-VEGF; also recorded: significantly reduced angiogenesis than murine anti-VEGF or scrambled peptide | retinal and choroidal angiogenesis compared with anti-VEGF (Eylea) [3]: significantly attenuates the retinal and choroidal angiogenesis than anti-VEGF; also recorded: significantly reduced angiogenesis as compared to Eylea (anti-VEGF) | VEGF induced HRMEC proliferation (HRMEC cells [4]): no effect on VEGF induced proliferation | VEGF induced HRMEC migration (HRMEC cells [5]; 300 μg/ml): moderate inhibitory effect | VEGF induced HRMEC migration (HRMEC cells [5]; 600 μg/ml): moderate inhibitory effect | HUVEC apoptosis ([6]; in the presence of 20 ng/ml VEGF): induced HUVEC apoptosis in the presence of 20 ng/ml VEGF in a dose-dependent manner | HUVEC apoptosis ([6]; in the presence of 20 ng/ml bFGF): induced HUVEC apoptosis in the presence of 20 ng/ml bFGF in a dose-dependent manner | HUVEC proliferation (HUVEC [7]; induced by 20 ng/ml VEGF): suppressed HUVEC proliferation induced by 20 ng/ml VEGF in a dose-dependent manner | HUVEC proliferation (HUVEC [7]; induced by 20 ng/ml bFGF): suppressed HUVEC proliferation induced by 20 ng/ml bFGF in a dose-dependent manner | HUVEC chemotactic migration (HUVEC [8]; induced by 20 ng/ml VEGF): suppressed HUVEC chemotactic migration induced by 20 ng/ml VEGF in a dose-dependent manner | HUVEC chemotactic migration (HUVEC [8]; induced by 20 ng/ml bFGF): suppressed HUVEC chemotactic migration that was induced by 20 ng/ml bFGF in a dose-dependent manner | HUVEC capillary network (tube) formation, percentage area covered by tubes (HUVEC [9]): inhibited HUVEC capillary network formation on Matrigel | VEGF-induced dissociation of VE-cadherin from AJs [10]: prevented VEGF-induced dissociation | VEGF-induced dissociation of ZO-1 and ZO-2 from TJs [11]: suppressed VEGF-induced dissociation of tight junction (TJ) proteins ZO-1 and ZO-2 from TJs | cortical actin fiber formation ([12]; HUVECs in the absence of VEGF): promoted cortical actin fiber formation | VEGF-induced actin stress fiber formation ([12]; HUVECs with VEGF): suppressed VEGF-induced actin stress fiber formation
